Data on eleven sequences can be found in paper PMC11649694.

Amino acid sequences for entries named in this document (tags omitted).
UniProt P10074, whole entry R611A/R614A: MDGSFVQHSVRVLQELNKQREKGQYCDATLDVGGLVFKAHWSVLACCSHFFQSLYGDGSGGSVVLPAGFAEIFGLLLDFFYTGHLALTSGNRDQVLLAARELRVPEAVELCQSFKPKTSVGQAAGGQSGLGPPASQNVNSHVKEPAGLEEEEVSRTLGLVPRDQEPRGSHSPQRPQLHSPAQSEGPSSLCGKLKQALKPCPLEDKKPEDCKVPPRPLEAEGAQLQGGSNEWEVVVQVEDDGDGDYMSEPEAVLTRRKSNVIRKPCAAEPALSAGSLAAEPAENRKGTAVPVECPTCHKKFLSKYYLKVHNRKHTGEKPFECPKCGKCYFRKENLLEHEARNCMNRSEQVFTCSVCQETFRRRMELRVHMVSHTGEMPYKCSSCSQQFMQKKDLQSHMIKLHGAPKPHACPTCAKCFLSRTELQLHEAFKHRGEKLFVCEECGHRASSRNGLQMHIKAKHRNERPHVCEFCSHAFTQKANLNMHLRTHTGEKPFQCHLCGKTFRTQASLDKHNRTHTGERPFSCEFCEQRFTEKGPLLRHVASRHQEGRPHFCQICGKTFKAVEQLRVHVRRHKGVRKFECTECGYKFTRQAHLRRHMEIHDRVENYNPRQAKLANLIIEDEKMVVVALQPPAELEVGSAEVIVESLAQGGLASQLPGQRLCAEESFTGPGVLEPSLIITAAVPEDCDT
UniProt P10074, whole entry R614A: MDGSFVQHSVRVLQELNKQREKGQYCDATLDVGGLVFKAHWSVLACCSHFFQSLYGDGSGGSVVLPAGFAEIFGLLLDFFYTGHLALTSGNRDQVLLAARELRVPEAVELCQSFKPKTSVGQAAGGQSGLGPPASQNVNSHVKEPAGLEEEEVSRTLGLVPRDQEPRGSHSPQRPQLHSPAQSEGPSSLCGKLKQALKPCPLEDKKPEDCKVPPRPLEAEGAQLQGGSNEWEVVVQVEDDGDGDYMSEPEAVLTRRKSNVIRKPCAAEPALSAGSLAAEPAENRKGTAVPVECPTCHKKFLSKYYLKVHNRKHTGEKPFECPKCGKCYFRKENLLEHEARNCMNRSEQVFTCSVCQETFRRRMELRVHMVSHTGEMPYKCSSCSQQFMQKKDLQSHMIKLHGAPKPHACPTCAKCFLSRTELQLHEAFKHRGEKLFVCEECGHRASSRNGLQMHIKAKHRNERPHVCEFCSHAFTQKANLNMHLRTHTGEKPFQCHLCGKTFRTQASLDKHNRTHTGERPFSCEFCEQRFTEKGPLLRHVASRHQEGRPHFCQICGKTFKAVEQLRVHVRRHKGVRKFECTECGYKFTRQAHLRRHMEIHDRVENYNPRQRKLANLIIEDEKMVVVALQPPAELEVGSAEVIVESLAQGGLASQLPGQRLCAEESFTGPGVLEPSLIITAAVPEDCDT
UniProt P10074, whole entry, stated change not applied: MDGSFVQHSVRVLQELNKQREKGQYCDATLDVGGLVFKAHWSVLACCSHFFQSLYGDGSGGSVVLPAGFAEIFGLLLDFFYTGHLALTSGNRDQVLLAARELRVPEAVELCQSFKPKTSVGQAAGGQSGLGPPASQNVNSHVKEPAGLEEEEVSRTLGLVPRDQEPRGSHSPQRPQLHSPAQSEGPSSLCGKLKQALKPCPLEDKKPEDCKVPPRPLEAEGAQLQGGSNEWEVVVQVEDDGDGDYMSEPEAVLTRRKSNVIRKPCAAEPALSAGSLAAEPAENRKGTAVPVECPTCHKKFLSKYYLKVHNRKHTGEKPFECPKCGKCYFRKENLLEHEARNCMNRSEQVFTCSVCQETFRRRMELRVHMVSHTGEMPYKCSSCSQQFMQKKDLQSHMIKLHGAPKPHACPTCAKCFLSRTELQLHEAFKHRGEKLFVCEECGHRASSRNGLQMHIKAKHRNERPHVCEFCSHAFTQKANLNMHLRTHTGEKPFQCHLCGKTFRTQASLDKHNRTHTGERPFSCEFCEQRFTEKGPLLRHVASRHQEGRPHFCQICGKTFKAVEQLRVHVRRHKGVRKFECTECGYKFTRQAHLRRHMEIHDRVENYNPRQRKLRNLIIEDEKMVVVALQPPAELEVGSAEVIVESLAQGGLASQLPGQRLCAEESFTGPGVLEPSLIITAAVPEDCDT
UniProt P10074, whole entry R611A: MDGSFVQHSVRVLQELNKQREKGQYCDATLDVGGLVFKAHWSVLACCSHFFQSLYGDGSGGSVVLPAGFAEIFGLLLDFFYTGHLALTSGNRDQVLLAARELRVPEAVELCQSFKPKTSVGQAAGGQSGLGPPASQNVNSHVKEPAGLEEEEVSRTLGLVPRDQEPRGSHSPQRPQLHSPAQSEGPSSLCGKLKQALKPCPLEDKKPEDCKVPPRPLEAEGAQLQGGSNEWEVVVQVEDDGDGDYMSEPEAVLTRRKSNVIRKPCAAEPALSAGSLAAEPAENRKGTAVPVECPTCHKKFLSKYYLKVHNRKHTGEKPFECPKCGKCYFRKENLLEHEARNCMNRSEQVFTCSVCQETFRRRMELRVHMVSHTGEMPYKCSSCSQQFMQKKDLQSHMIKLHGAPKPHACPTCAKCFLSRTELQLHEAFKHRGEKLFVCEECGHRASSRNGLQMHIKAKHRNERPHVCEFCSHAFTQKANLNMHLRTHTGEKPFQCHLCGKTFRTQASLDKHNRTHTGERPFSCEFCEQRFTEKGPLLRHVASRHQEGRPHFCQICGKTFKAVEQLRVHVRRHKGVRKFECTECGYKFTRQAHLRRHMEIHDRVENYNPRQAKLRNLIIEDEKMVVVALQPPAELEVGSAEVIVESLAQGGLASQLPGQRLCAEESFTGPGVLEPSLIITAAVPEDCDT

Where cells or extracts were used, other partners may take part. For some of these results: No signal at the amounts used counts as a negative. For some of these results: At least one verdict was read from the data and is not stated in words by the source. For some of these results: For at least one entry, the source does not settle the construct or the ends of the probe. For some of these results: A weaker result is weaker than the reference pair of the same experiment.

Assay in all cases: DNA pull-down/immunoblot
For orientation: Immunoblotting shows a protein as a band on a membrane.

Data set [1] concerns the target ZBTB48 endogenous (U2OS nuclear extract) (Homo sapiens (U2OS cells)) (UniProt P10074). The conditions noted are these: Pull-down: 150 mM NaCl, 50 mM Tris-HCl pH 7.5, 5 mM MgCl2, 0.5% Igepal CA-630, 1 mM DTT, 20 ug salmon sperm DNA, 4 C 2 h; protein in an extract; label: desthiobiotin-dATP.
Data set [2] concerns the target ZBTB48 endogenous (SUDHL4 nuclear extract) (Homo sapiens (SUDHL4 cells)) (UniProt P10074). As to conditions: Pull-down: 150 mM NaCl, 50 mM Tris-HCl pH 7.5, 5 mM MgCl2, 0.5% Igepal CA-630, 1 mM DTT, 20 ug salmon sperm DNA, 4 C 2 h; protein in an extract; label: desthiobiotin-dATP.
In another data set the target is FLAG-ZBTB48 WT (UniProt P10074). As to conditions: Pull-down: 150 mM NaCl, 50 mM Tris-HCl pH 7.5, 5 mM MgCl2, 0.5% Igepal CA-630, 1 mM DTT, 20 ug salmon sperm DNA, 4 C 2 h; protein in a lysate after overexpression; residues 1-688; protein details: FLAG; label: desthiobiotin-dATP.
The target in data set [3] is FLAG-ZBTB48 delta ZnF1-9 + ZnF11 mutant (UniProt P10074). As to conditions: Pull-down: 150 mM NaCl, 50 mM Tris-HCl pH 7.5, 5 mM MgCl2, 0.5% Igepal CA-630, 1 mM DTT, 20 ug salmon sperm DNA, 4 C 2 h; protein in a lysate after overexpression; protein details: FLAG; label: desthiobiotin-dATP.
The next data set addresses FLAG-ZBTB48 R611A/R614A (UniProt P10074). The conditions noted are these: Pull-down: 150 mM NaCl, 50 mM Tris-HCl pH 7.5, 5 mM MgCl2, 0.5% Igepal CA-630, 1 mM DTT, 20 ug salmon sperm DNA, 4 C 2 h; protein in a lysate after overexpression; residues 1-688; protein details: FLAG; label: desthiobiotin-dATP.
In another data set the target is FLAG-ZBTB48 R614A (UniProt P10074). The conditions noted are these: Pull-down: 150 mM NaCl, 50 mM Tris-HCl pH 7.5, 5 mM MgCl2, 0.5% Igepal CA-630, 1 mM DTT, 20 ug salmon sperm DNA, 4 C 2 h; protein in a lysate after overexpression; residues 1-688; protein details: FLAG; label: desthiobiotin-dATP.
The next data set has as its target FLAG-ZBTB48 ZnF11 mutant (UniProt P10074). As to conditions: Pull-down: 150 mM NaCl, 50 mM Tris-HCl pH 7.5, 5 mM MgCl2, 0.5% Igepal CA-630, 1 mM DTT, 20 ug salmon sperm DNA, 4 C 2 h; protein in a lysate after overexpression; residues 1-688; protein details: FLAG; label: desthiobiotin-dATP.
A further data set concerns the target FLAG-ZBTB48 ZnF10 mutant (UniProt P10074). As to conditions: Pull-down: 150 mM NaCl, 50 mM Tris-HCl pH 7.5, 5 mM MgCl2, 0.5% Igepal CA-630, 1 mM DTT, 20 ug salmon sperm DNA, 4 C 2 h; protein in a lysate after overexpression; residues 1-688; protein details: FLAG; label: desthiobiotin-dATP.
The next data set concerns the target FLAG-ZBTB48 ZnF1 mutant (UniProt P10074). As to conditions: Pull-down: 150 mM NaCl, 50 mM Tris-HCl pH 7.5, 5 mM MgCl2, 0.5% Igepal CA-630, 1 mM DTT, 20 ug salmon sperm DNA, 4 C 2 h; protein in a lysate after overexpression; residues 1-688; protein details: FLAG; label: desthiobiotin-dATP.
The target of another data set is FLAG-ZBTB48 ZnF6 mutant (UniProt P10074). The conditions noted are these: Pull-down: 150 mM NaCl, 50 mM Tris-HCl pH 7.5, 5 mM MgCl2, 0.5% Igepal CA-630, 1 mM DTT, 20 ug salmon sperm DNA, 4 C 2 h; protein in a lysate after overexpression; residues 1-688; protein details: FLAG; label: desthiobiotin-dATP.
Data set [4] concerns the target FLAG-ZBTB48 delta ZnF1-9 + ZnF10 mutant (UniProt P10074). The conditions noted are these: Pull-down: 150 mM NaCl, 50 mM Tris-HCl pH 7.5, 5 mM MgCl2, 0.5% Igepal CA-630, 1 mM DTT, 20 ug salmon sperm DNA, 4 C 2 h; protein in a lysate after overexpression; protein details: FLAG; label: desthiobiotin-dATP.
In another data set the target is FLAG-ZBTB48 ZnF3 mutant (UniProt P10074). As to conditions: Pull-down: 150 mM NaCl, 50 mM Tris-HCl pH 7.5, 5 mM MgCl2, 0.5% Igepal CA-630, 1 mM DTT, 20 ug salmon sperm DNA, 4 C 2 h; protein in a lysate after overexpression; residues 1-688; protein details: FLAG; label: desthiobiotin-dATP.
In the next data set the target is FLAG-ZBTB48 ZnF5 mutant (UniProt P10074). The conditions noted are these: Pull-down: 150 mM NaCl, 50 mM Tris-HCl pH 7.5, 5 mM MgCl2, 0.5% Igepal CA-630, 1 mM DTT, 20 ug salmon sperm DNA, 4 C 2 h; protein in a lysate after overexpression; residues 1-688; protein details: FLAG; label: desthiobiotin-dATP.
Another data set deals with FLAG-ZBTB48 ZnF9 mutant (UniProt P10074). The conditions noted are these: Pull-down: 150 mM NaCl, 50 mM Tris-HCl pH 7.5, 5 mM MgCl2, 0.5% Igepal CA-630, 1 mM DTT, 20 ug salmon sperm DNA, 4 C 2 h; protein in a lysate after overexpression; residues 1-688; protein details: FLAG; label: desthiobiotin-dATP.
A further data set has as its target FLAG-ZBTB48 ZnF4 mutant (UniProt P10074). The conditions noted are these: Pull-down: 150 mM NaCl, 50 mM Tris-HCl pH 7.5, 5 mM MgCl2, 0.5% Igepal CA-630, 1 mM DTT, 20 ug salmon sperm DNA, 4 C 2 h; protein in a lysate after overexpression; residues 1-688; protein details: FLAG; label: desthiobiotin-dATP.
The target of another data set is FLAG-ZBTB48 ZnF7 mutant (UniProt P10074). As to conditions: Pull-down: 150 mM NaCl, 50 mM Tris-HCl pH 7.5, 5 mM MgCl2, 0.5% Igepal CA-630, 1 mM DTT, 20 ug salmon sperm DNA, 4 C 2 h; protein in a lysate after overexpression; residues 1-688; protein details: FLAG; label: desthiobiotin-dATP.
The next data set deals with FLAG-ZBTB48 ZnF8 mutant (UniProt P10074). As to conditions: Pull-down: 150 mM NaCl, 50 mM Tris-HCl pH 7.5, 5 mM MgCl2, 0.5% Igepal CA-630, 1 mM DTT, 20 ug salmon sperm DNA, 4 C 2 h; protein in a lysate after overexpression; residues 1-688; protein details: FLAG; label: desthiobiotin-dATP.
The next data set addresses FLAG-ZBTB48 R611A (UniProt P10074). The conditions noted are these: Pull-down: 150 mM NaCl, 50 mM Tris-HCl pH 7.5, 5 mM MgCl2, 0.5% Igepal CA-630, 1 mM DTT, 20 ug salmon sperm DNA, 4 C 2 h; protein in a lysate after overexpression; residues 1-688; protein details: FLAG; label: desthiobiotin-dATP.

As for “GTGAGTGTGAGTGTGAGTGTGAGTGTGAGTGTGAGTGTGAGTGTGAGTGTGAGTGTGAGT / ACACTCACACTCACACTCACACTCACACTCACACTCACACTCACACTCACACTCACACTC [GTGAGT scramble control]”, the binding result (in [1]; in data set [2]; with FLAG-ZBTB48 WT) was “no binding” each time.
For “ATCCCTCACTTGTTTCTTATCCCTCACTTGTTTCTTATCCCTCACTTGTTTCTT / ATAAGAAACAAGTGAGGGATAAGAAACAAGTGAGGGATAAGAAACAAGTGAGGG [CIITA pIII probe e.3 (listed as f.3 in Dataset EV5)]”, in data set [1], the binding result is listed as “no binding”.
Turning to “CTTAAGGGAGTGTGGTAAAATTAGAGGGTGTTCAGAAACAGAAATCTGACCGCTTGGGGC / AGGCCCCAAGCGGTCAGATTTCTGTTTCTGAACACCCTCTAATTTTACCACACTCCCTTA [CIITA pIII probe 3]”, the binding result in data set [1] is “binds”.
Still for that read-out and setting: as for “CTTGGGGCCACCTTGCAGGGAGAGTTTTTTCTTGGGGCCACCTTGCAGGGAGAGTTTTTT / AGAAAAAACTCTCCCTGCAAGGTGGCCCCAAGAAAAAACTCTCCCTGCAAGGTGGCCCCA [CIITA pIII probe d (listed as e in Dataset EV5)]”, the entry is “no binding”; as for “TTCCCCCAACAGACTTTCTGTGCAACTTTCTGTCTTCACCAAATTCAGTCCACAGTAAGG / AACCTTACTGTGGACTGAATTTGGTGAAGACAGAAAGTTGCACAGAAAGTCTGTTGGGGG [CIITA pIII probe 1]”, “no binding”.
On to “TTAGGGTTAGGGTTAGGGTTAGGGTTAGGGTTAGGGTTAGGGTTAGGGTTAGGGTTAGGG / AACCCTAACCCTAACCCTAACCCTAACCCTAACCCTAACCCTAACCCTAACCCTAACCCT [telomeric TTAGGG]”, for which the binding result in [3] is listed as “no binding”; in data set [1], “binds”; with FLAG-ZBTB48 R611A/R614A it was “no binding”; with FLAG-ZBTB48 R614A it was “binds more weakly”; in the data set with FLAG-ZBTB48 ZnF11 mutant, “no binding”; in [2], “binds”. Also, the binding result with FLAG-ZBTB48 ZnF10 mutant and with FLAG-ZBTB48 WT was “binds” each time.
In the case of “CTGCCAGACTCCGGGAGCTGCTGCCTGGCTGGGATTCCTACACAATGCGTTGCCTGGCTC / AGGAGCCAGGCAACGCATTGTGTAGGAATCCCAGCCAGGCAGCAGCTCCCGGAGTCTGGC [CIITA pIII probe 8]”, in [1], the binding result is on record as “no binding”.
On the same count and under the same terms, as for “TTAATTTCAGAGGTGTGGGGAGGGCTTAAGGTTAATTTCAGAGGTGTGGGGAGGGCTTAAGG / AACCTTAAGCCCTCCCCACACCTCTGAAATTAACCTTAAGCCCTCCCCACACCTCTGAAATT [CIITA pIII probe a]”, the entry is “no binding”; as for “GTAAAATTAGAGGGTGGTAAAATTAGAGGGTGGTAAAATTAGAGGGTG / ACCACCCTCTAATTTTACCACCCTCTAATTTTACCACCCTCTAATTTT [CIITA pIII probe b.3]”, “no binding”.
For “CTTAAGGGAGTGTGGCTTAAGGGAGTGTGGCTTAAGGGAGTGTGGCTTAAGGGAGTGTGG / AGCCACACTCCCTTAAGCCACACTCCCTTAAGCCACACTCCCTTAAGCCACACTCCCTTA [CIITA pIII probe b.1 (ARE-1)]”, the binding result with FLAG-ZBTB48 ZnF1 mutant is listed as “binds”; in data set [3], “no binding”; with FLAG-ZBTB48 ZnF6 mutant, “binds”; in data set [1], “binds”; in [4] it was “binds more weakly”; with FLAG-ZBTB48 R611A/R614A it was “no binding”. Moreover, the binding result with FLAG-ZBTB48 ZnF3 mutant was “binds”; in the data set with FLAG-ZBTB48 ZnF5 mutant it was “binds”; in the data set with FLAG-ZBTB48 R614A, “no binding”; with FLAG-ZBTB48 ZnF11 mutant it was “no binding”; with FLAG-ZBTB48 ZnF9 mutant, “binds”; in the data set with FLAG-ZBTB48 ZnF4 mutant, “binds”. The binding result in data set [2] is “binds”; with FLAG-ZBTB48 ZnF10 mutant, “binds more weakly”; with FLAG-ZBTB48 ZnF7 mutant, “binds”; in the data set with FLAG-ZBTB48 ZnF8 mutant, “binds”; with FLAG-ZBTB48 R611A, “no binding”; with FLAG-ZBTB48 WT it was “binds”.
Take “GTGACTGGTTAGTGATGAGGCTAGTGATGAGGCTGTGTGCTTCTGAGCTGGGCATCCGAA / ACTTCGGATGCCCAGCTCAGAAGCACACAGCCTCATCACTAGCCTCATCACTAACCAGTC [CIITA pIII probe 6]”: the binding result in data set [1] was “no binding”.
